Experimental findings from EP0417819A1 (AKZO N.V., priority 1989, dated 1991) are described below.

Square brackets hold non-standard residues; d marks the D form. * marks the point of attachment. Cha = N[C@@H](CC1CCCCC1)C(=O)O; Nle = CCCC[C@H](N)C(=O)O; Cbz = O=C(OCc1ccccc1)*; Boc = CC(C)(C)OC(=O)*; OtBu = CC(C)(C)O*; NHNH2 = NN*

One data set can be described thus: general procedure: solution-phase peptide synthesis; DCC/HOBt; azide method. The settings on record: coupling step, acetate (ion exchanger in the acetate form).
Consider H-Δ Pro-Leu-Val-Thr-Leu-OtBu, for which the step yield was determined as 73.5%.

For Cbz-TSE(OtBu)[Nle]-OMe, the step yield was determined as 89.1%.

As to Cbz-E(OtBu)TPLVTL-OtBu, the step yield is given as 76,7%.

On to “Boc-Thr-Ser-Glu(OtBu)-Lys(Ac)-Ser-Gln-Thr-OBZ1”, for which the step yield came to 70.4%.

As for Cbz-PLVTL-OtBu, the step yield turned out to be 80%.

With Cbz-SQTPLV[dT][Cha]-OtBu, the step yield was found to be 67.9%.

In turn, Cbz-TPLVTL-OtBu registered a step yield of 93%.

Substance Boc-TSE(OtBu)K(Ac)SQTPLV-OH displayed a step yield of 44.8%.

In the case of Cbz-SQTPLV-OtBu, the step yield is 48.0%.

For the substance Cbz-SE(OtBu)TPLVTL-OtBu, the step yield is 48%.

Turning to Cbz-TSE(OtBu)K(Ac)-OMe, the step yield was determined as 84.6%.

Still in this data set, the particulars now being: coupling step, acetate (ion exchanger in the acetate form); run 1.
The substance Boc-TPE(OtBu)K(Ac)-OMe had a step yield of 68.2%.

Still in this data set, the particulars now being: coupling step, acetate (ion exchanger in the acetate form); run 2.
For Boc-TPE(OtBu)K(Ac)-OMe, the step yield worked out at 79.3%.

The same data set, now with this note: late stage modification step, acetate (ion exchanger in the acetate form).
Cbz-TSE(OtBu)K(Ac)-NHNH2 showed a step yield of 67.8%.

Take Cbz-TSE(OtBu)[Nle]-NHNH2: the step yield is given as 64.1%.

Consider Cbz-SQTPLV-OH, for which the step yield worked out at 84.0%.

The data set is the same for the next values; noted with them: late stage modification step, acetate (ion exchanger in the acetate form); run 1.
Boc-TPE(OtBu)K(Ac)-NHNH2 displayed a step yield of 96.7%.

Staying with this data set, now noted: late stage modification step, acetate (ion exchanger in the acetate form); run 2.
On to Boc-TPE(OtBu)K(Ac)-NHNH2, for which the step yield is 50%.
